Values from PubChem BioAssay AID1259254 (NCATS, 2017)

- Purpose: 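Finding genes that stop cells copying their DNA twice in one cycle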 (primary screen)
- Cell system: human HCT116 colorectal cancer cells
- Knock-down reagent: single siRNA against human genes
- Timing: 3 days
- Measured: 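Nuclei stained with Hoechst and imaged; cell-cycle phase assigned by DNA content; G2 share scaled per plate, non-targeting siRNA 0%, GMNN siRNA 100%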
- Scale: G2 robust z-score and G2 cells, % of GMNN control: higher = more G2 cells, more excess DNA replication; raw share of cells in G2: higher = larger share of cells with G2 DNA content
- Hit rule: 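Active siRNAs have a G2 robust z of 5 or more median absolute deviations over the median, which in these data means about 38% or higher of GMNN control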
Here is a random part of about 59,000 reagents tested. Over the whole deposit, about 1,550 (2.6%) got an active call. 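G2 share is only a proxy for re-replication; each gene was hit by three separate siRNAs, and active genes were retested.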 Raw values vary from plate to plate and are shown uncorrected. The numbers tell different reagents against one gene apart. Not given: the amount of reagent.

| gene symbol | reagent no. | G2 robust z-score | G2 cells, % of GMNN control | raw share of cells in G2 (%) | activity call |
| --- | --- | --- | --- | --- | --- |
| HMG20A | 1 | -0.0349 | 2.72 | 6.56 | inactive |
| HMG20A | 2 | -0.00221 | 2.95 | 5.18 | inactive |
| HMG20A | 3 | 4.47 | 34.4 | 15.9 | inactive |
| COBLP1 | 1 | 1.12 | 10.8 | 7.75 | inactive |
| COBLP1 | 2 | -0.902 | -3.38 | 2.18 | inactive |
| COBLP1 | 3 | -0.758 | -2.37 | 3.81 | inactive |
| PF4 | 1 | 1.98 | 16.9 | 12.2 | inactive |
| PF4 | 2 | -0.467 | -0.317 | 4.1 | inactive |
| PF4 | 3 | 2.42 | 20 | 10.6 | inactive |
| SCAF1 | 1 | -0.498 | -0.538 | 4.13 | inactive |
| SCAF1 | 2 | 3.49 | 27.5 | 17.6 | inactive |
| SCAF1 | 3 | 0.866 | 9.06 | 5.9 | inactive |
| CCNYL3 | 1 | 1.75 | 15.3 | 9.53 | inactive |
| CCNYL3 | 2 | -0.159 | 1.85 | 4.12 | inactive |
| CCNYL3 | 3 | 1.1 | 10.7 | 6.77 | inactive |
| GSK3B | 1 | 1.66 | 14.7 | 10.4 | inactive |
| GSK3B | 2 | -1.19 | -5.43 | 3.58 | inactive |
| GSK3B | 3 | 1.04 | 10.3 | 7.65 | inactive |
| LRRC58 | 1 | 0.0125 | 3.06 | 5.32 | inactive |
| LRRC58 | 2 | 1.05 | 10.4 | 6.42 | inactive |
| LRRC58 | 3 | -0.0476 | 2.63 | 2.59 | inactive |
| URM1 | 1 | 0.279 | 4.93 | 3.9 | inactive |
| URM1 | 2 | 4.53 | 34.8 | 15.7 | inactive |
| URM1 | 3 | -0.668 | -1.74 | 2.94 | inactive |
| GAS8-AS1 | 1 | 2.98 | 23.9 | 12.9 | inactive |
| GAS8-AS1 | 2 | 1.77 | 15.4 | 12.5 | inactive |
| GAS8-AS1 | 3 | 0.00128 | 2.98 | 4.69 | inactive |
| NPR1 | 1 | -0.307 | 0.81 | 3.48 | inactive |
| NPR1 | 2 | 1.74 | 15.2 | 10.9 | inactive |
| NPR1 | 3 | 0.906 | 9.34 | 8.74 | inactive |

Not a retest: entries from further up.
| gene symbol | reagent no. | G2 robust z-score | G2 cells, % of GMNN control | raw share of cells in G2 (%) | activity call |
| --- | --- | --- | --- | --- | --- |
| COBLP1 | 3 | -0.758 | -2.37 | 3.81 | inactive |
| PF4 | 1 | 1.98 | 16.9 | 12.2 | inactive |
| PF4 | 2 | -0.467 | -0.317 | 4.1 | inactive |
| PF4 | 3 | 2.42 | 20 | 10.6 | inactive |
